Our source for the binding values is paper PMC4797270.

The chains behind the UniProt entries cited, without tags or fusion partners. Where a name states a change or a piece, a line headed by the entry shows the natural chain unless it says otherwise.
UniProt Q9V6Q2: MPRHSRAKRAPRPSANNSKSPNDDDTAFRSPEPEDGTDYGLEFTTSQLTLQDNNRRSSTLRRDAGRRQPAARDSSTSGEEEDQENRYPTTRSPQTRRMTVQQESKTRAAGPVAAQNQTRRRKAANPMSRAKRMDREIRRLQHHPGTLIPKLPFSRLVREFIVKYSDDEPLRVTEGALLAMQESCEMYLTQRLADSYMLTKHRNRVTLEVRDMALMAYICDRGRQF
UniProt Q0KIB3: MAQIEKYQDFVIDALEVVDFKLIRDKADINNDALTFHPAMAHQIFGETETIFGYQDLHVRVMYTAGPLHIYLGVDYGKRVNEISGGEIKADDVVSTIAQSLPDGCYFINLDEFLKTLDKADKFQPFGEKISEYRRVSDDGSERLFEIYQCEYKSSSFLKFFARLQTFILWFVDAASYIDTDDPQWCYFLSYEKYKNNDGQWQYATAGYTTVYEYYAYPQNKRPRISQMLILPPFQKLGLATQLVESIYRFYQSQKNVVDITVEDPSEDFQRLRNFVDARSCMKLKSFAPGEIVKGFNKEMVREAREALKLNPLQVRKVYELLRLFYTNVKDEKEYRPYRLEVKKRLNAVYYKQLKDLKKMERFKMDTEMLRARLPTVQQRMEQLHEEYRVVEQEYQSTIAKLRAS
UniProt Q24572: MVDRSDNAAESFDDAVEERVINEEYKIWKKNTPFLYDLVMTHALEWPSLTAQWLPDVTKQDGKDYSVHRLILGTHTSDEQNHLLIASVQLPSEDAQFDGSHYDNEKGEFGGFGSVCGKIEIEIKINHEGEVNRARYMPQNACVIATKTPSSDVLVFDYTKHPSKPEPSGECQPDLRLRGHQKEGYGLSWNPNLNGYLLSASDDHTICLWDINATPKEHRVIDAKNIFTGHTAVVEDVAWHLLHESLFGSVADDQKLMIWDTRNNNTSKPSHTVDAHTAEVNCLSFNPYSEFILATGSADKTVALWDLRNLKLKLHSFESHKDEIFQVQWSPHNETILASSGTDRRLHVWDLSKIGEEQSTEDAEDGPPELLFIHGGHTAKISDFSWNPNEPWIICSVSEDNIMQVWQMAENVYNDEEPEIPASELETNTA
UniProt Q8IRG6: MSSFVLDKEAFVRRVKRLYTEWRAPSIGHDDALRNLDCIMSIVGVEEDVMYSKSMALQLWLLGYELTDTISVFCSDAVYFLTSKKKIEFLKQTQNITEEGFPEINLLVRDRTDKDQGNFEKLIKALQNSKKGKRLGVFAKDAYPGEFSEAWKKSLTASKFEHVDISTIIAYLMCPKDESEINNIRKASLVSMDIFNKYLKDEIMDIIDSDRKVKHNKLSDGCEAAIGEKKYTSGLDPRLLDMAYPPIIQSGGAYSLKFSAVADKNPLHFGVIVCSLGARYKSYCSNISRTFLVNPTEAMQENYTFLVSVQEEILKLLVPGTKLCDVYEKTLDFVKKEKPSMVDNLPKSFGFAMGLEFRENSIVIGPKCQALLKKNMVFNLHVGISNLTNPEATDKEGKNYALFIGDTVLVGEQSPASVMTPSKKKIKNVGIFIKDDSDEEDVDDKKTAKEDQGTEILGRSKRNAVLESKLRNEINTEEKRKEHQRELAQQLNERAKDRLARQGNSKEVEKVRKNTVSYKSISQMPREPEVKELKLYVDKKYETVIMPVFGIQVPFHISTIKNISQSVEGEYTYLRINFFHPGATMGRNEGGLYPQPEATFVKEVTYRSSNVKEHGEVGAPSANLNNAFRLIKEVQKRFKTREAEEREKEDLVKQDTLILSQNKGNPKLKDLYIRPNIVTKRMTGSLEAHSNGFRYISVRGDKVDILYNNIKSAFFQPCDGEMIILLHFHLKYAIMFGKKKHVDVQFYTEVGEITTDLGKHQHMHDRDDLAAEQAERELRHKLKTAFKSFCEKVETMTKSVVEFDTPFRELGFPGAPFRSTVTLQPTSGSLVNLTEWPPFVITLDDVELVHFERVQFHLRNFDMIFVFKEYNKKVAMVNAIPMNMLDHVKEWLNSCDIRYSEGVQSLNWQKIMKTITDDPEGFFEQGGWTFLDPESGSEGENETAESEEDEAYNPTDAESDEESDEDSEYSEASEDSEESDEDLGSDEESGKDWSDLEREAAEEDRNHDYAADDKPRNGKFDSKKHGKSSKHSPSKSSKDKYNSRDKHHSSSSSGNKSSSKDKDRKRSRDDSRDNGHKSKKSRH

These are yes or no findings as the source states them, for the method shown. Binding seen in cells or lysates may run through a third protein. Here binding means that the protein was enriched with, or labelled near, the bait; the list need not be complete. No binding means not detected with the bait.

Assay [1] has as its target EGFP-tagged CENP-A (Drosophila melanogaster) (UniProt Q9V6Q2). As to the kind of experiment: affinity purification with mass spectrometry; α-GFP sepharose beads; low salt nuclear extract of S2 cells stably expressing EGFP-CENP-A, nontransfected S2 cells as control; eluates analysed by MS.
The target of assay [2] is StrepII-Flag (SF)-tagged CENP-A (Drosophila melanogaster) (UniProt Q9V6Q2). As to the kind of experiment: affinity purification with mass spectrometry; tandem purification by streptactin-agarose followed by α-Flag magnetic beads (SF-TAP); low salt nuclear extract of S2 cells stably expressing SF-CENP-A, nontransfected S2 cells as control; eluates analysed by MS.
Assay [3] has as its target SF-CG2051/Hat1 (S2 cells) (Drosophila melanogaster) (UniProt Q0KIB3). The assay is described as follows: affinity purification with mass spectrometry; large-scale immunopurification of Flag-CG2051/Hat1 (SF-CG2051) from S2 cells; purified proteins analysed by MS.

Regarding “CG2051 (Hat1), endogenous (from UniProt Q0KIB3) (enzyme)”, the binding entry in assay [1] and in assay [2] was “binds” each time.
Turning to “Caf1 (Rbap46/48), endogenous (from UniProt Q24572 1-430)”, the binding entry in assay [3], in assay [1] and in assay [2] was “binds” each time.
“CENP-A/Cid (endogenous) (from UniProt Q9V6Q2 1-225)”: the binding result in assay [3] was “binds”.
Take “FACT subunit Dre4, endogenous (from UniProt Q8IRG6 1-1083)”: the binding entry is recorded as “no binding” in assay [3], “binds” in assay [1] and “binds” in assay [2].

B1: FACT subunit Ssrp, endogenous (protein, UniProt Q05344 1-723)
chain: MTDSLEYNDINAEVRGVLCSGRLKMTEQNIIFKNTKTGKVEQISAEDIDLINSQKFVGTWGLRVFTKGGVLHRFTGFRDSEHEKLGKFIKAAYSQEMVEKEMCVKGWNWGTARFMGSVLSFDKESKTIFEVPLSHVSQCVTGKNEVTLEFHQNDDAPVGLLEMRFHIPAVESAEEDPVDKFHQNVMSKASVISASGESIAIFREIQILTPRGRYDIKIFSTFFQLHGKTFDYKIPMDSVLRLFMLPHKDSRQMFFVLSLDPPIKQGQTRYHYLVLLFAPDEETTIELPFSEAELRDKYEGKLEKEISGPVYEVMGKVMKVLIGRKITGPGNFIGHSGTAAVGCSFKAAAGYLYPLERGFIYIHKPPLHIRFEEISSVNFARSGGSTRSFDFEVTLKNGTVHIFSSIEKEEYAKLFDYITQKKLHVSNMGKDKSGYKDVDFGDSDNENEPDAYLARLKAEAREKEEDDDDGDSDEESTDEDFKPNENESDVAEEYDSNVESDSDDDSDASGGGGDSDGAKKKKEKKSEKKEKKEKKHKEKERTKKPSKKKKDSGKPKRATTAFMLWLNDTRESIKRENPGIKVTEIAKKGGEMWKELKDKSKWEDAAAKDKQRYHDEMRNYKPEAGGDSDNEKGGKSSKKRKTEPSPSKKANTSGSGFKSKEYISDDDSTSSDDEKDNEPAKKKSKPPSDGDAKKKKAKSESEPEESEEDSNASDEDEEDEASD
With B1, the binding entry in assay [3] was “no binding”; in assay [2], “binds”.

B2: nucleolar protein Modulo (protein, UniProt P13469 1-542)
chain: MAQKKAVTVKGKKATNGEEKPLAKRVTKSTKVQEEETVVPQSPSKKSRKQPVKEVPQFSEEDESDVEEQNDEQPGDDSDFETEEAAGLIDDEAEEDEEYNSDDEEDDDDDELEPGEVSKSEGADEVDESDDDEEAPVEKPVSKKSEKANSEKSEENRGIPKVKVGKIPLGTPKNQIVFVTNLPNEYLHKDLVALFAKFGRLSALQRFTNLNGNKSVLIAFDTSTGAEAVLQAKPKALTLGDNVLSVSQPRNKEENNERTVVVGLIGPNITKDDLKTFFEKVAPVEAVTISSNRLMPRAFVRLASVDDIPKALKLHSTELFSRFITVRRISQESISRTSELTLVVENVGKHESYSSDALEKIFKKFGDVEEIDVVCSKAVLAFVTFKQSDAATKALAQLDGKTVNKFEWKLHRFERSTSGRAILVTNLTSDATEADLRKVFNDSGEIESIIMLGQKAVVKFKDDEGFCKSFLANESIVNNAPIFIEPNSLLKHRLLKKRLAIGQTRAPRKFQKDTKPNFGKKPFNKRPAQENGGKSFVKRARF
For B2, the binding entry in assay [1] and in assay [2] was “binds” throughout.

B3: CG8223, fly homolog of Hif1/NASP (protein, UniProt Q9I7K6 1-492)
chain: MSAEAEAIVTTATADVSSPSKTVAVEPVAADTTPDNAPAVSTEGSGKAEQERAEKILKGKELFSQGSRNFLVKSYDEAADELSQVCQLYEEVYGELADELGQPLLLYAKALIAMALDENKVIDVPDEAADDDDEDVDDDEEESAEDGAAKKEEKKDTKEAANGASSSNGKELDTIKEGSDEADSTGEAEQAQSDEKPSKKVPTGVDEVSSSNGGGGAAVNDDERPSTSNGEVTASCSNGAAPAVEEEPEEEEGVSGSLQLAWEILEAAAQIFSRQGLSGLPYLAEVQTELANIEFENGILEAAREDYEKALKIHGELPTRNRRALAELHYKIGLTYLMQQLNKEGATALRQSSVLIEEEIAEIKGKDEPSERDRNNMLDLEETKQEILAKIQEIEEMQAQTIAEVRAALDSYIKPMSSGDAAAASSSSSSSANGAASSSSSSSKGAAAASSSTISSSSAKPTDITHLIKRKKPEDPSSEAEALCSPAKRAAV
With B3, the binding entry in assay [1] and in assay [2] was “no binding” each time.

B4: importin karyopherin α3 (Kap-α3) (protein, UniProt Q9V455 1-514)
chain: MTSMEQNRLQNFKNKGKDQDEMRRRRNEVTVELRKNKREETILKRRNVPNLDSNTDEEEQLSSSIDLKKLAKAAADATKPEQQLAAVQAARKLLSSDKNPPINDLIQSDILPILVECLKQHNHTMLQFEAAWALTNIASGTSAQTNEVVAAGAVPLFLQLLNSPAPNVCEQAVWALGNIIGDGPLLRDFVIKHGVVQPLLSFIKPDIPITFLRNVTWVIVNLCRNKDPAPPTATIHEILPALNVLIHHTDTNILVDTVWAISYLTDGGNDQIQMVIESGVVPKLIPLLGNSEVKVQTAALRAVGNIVTGSDEQTQVVLNYDALSYFPGLLSHPKEKIRKEAVWFLSNITAGNQSQVQAVINVGLLPKIIENLSKGEFQTQKEAAWAISNLTISGNREQVFTLIKEGVIPPFCDLLSCQDTQVINVVLDGLNNMLKVADSHVEAVANCIEECEGLAKIERLQSHENVEIYKLAYEIIDQYFTDEGEQTNMAPTSDGAQYNFDPHADRLTMNSFNF
On to B4, for which the binding entry in assay [2] is “binds”.
